Drawing on PubChem BioAssay AID662 (National Center for Advancing Translational Sciences (NCATS), 2007), this text covers AC50 for 69 compounds.

The list shows a part of the results. Shown are side measurements of this screen, not its main read-out; they come without a call. The list favours compounds with an active or inconclusive main result. The note in brackets gives the kind of curve behind each potency; many fits are weak.

The assay in a line: Cell signaling CRE-BLA (Fsk stim). As to conditions: CHO CRE-bla reporter (cAMP response element driving beta-lactamase), forskolin EC10, beta-lactamase ratio; measured here: 460 nm blue channel. Summed up: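 The 460nm/530nm emission ratio after CCF4 loading defined %Activity, from which AC50 values were obtained. CRE-bla CHO cells received compound dilution series together with an EC10 level of NKH 477 for 3 hours at 37 degrees Celsius.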
In the case of `COc1cc(OC)cc(N(C(=O)c2ccco2)C(C(=O)NC2CCCC2)c2ccc(N(C)C)cc2)c1` (centres undefined), the half-maximal activity concentration (AC50) was 0.0794 µM [falling, single point].

For the compound `COCCn1c(=O)c(-c2cccc(C#N)c2)nc2cnc(Oc3ccccc3)nc21`, the AC50 is 25.1 µM [rising, single point].

`Cn1c(=O)c2c(SCc3ccccn3)nc(C3CC3)nc2n(C)c1=O`: the AC50 was 2.51 µM [rising, full curve].

For the compound `COc1ccc(CNC(=O)C(C)N(Cc2ccco2)C(=O)c2snc(C(N)=O)c2N)cc1` (centres undefined), the AC50 is 1 µM [falling, partial curve].

For the compound `Cc1noc(C)c1CSc1nc2ccccc2c(=O)n1-c1ccccc1`, the half-maximal activity concentration (AC50) was 10 µM [rising, partial curve].

`COc1ccc(C(=O)c2oc3ccc(OC)cc3c2N)cc1`: the AC50 is 12.6 µM [rising, partial curve].

Turning to `CCOc1cc(-c2nn3cnnc3s2)cc(OCC)c1OCC`, the half-maximal activity concentration (AC50) was 0.1 µM [rising, full curve].

With `COc1cccc(C2=CC(c3cccc(OC)c3OC)n3nnnc3N2)c1` (centres undefined), the AC50 is 12.6 µM [rising, partial curve].

With `O=c1cnc2cnc(N3CCNCC3)nc2n1Cc1cccs1`, the AC50 was 12.6 µM [rising, single point].

As to `Cc1cccn2c(=O)c3cc(C(=O)Nc4ccc(N(C)C)cc4)n(C)c3nc12`, the AC50 was 0.126 µM [rising, full curve].

For `CCNc1nc(SCC(=O)OC)nc(N2CCOCC2)n1`, the half-maximal activity concentration (AC50) was 5.01 µM [rising, partial curve].

On to `C=CCn1c(COc2ccccc2F)nnc1SCC(=O)NC(=O)NCc1ccco1`, for which the AC50 is 3.16 µM [falling, full curve].

Consider `Cc1c(C(=O)OC2CCCC2)[nH]c2c1C(=O)CC(c1ccco1)C2` (centres undefined), for which the half-maximal activity concentration (AC50) was 0.631 µM [rising, full curve].

In the case of `COCCNC(=O)c1cc(-c2ccccc2OC)on1`, the concentration at half-maximal activity (AC50) is 10 µM [rising, single point].

For the compound `O=S(=O)(c1cccc(-c2nnc(SCc3ccc(Cl)cc3)o2)c1)N1CCCCC1`, the AC50 was 0.0794 µM [falling, partial curve, poor fit].

In the case of `Cc1noc(C)c1S(=O)(=O)N1CCC(C(=O)NCCC2=CCCCC2)CC1`, the AC50 is 3.16 µM [rising, single point].

`COc1ccc(CNC(=O)c2cnc3scc(C)n3c2=O)cc1`: the AC50 was 10 µM [rising, partial curve].

Take `COc1ccc(Br)cc1C1SCCN1S(C)(=O)=O` (centres undefined): the AC50 is 0.2 µM [rising, single point].

As to `O=C(NC1CCCC1)c1cnn2c(C(F)(F)F)cc(-c3ccco3)nc12`, the half-maximal activity concentration (AC50) was 5.01 µM [rising, partial curve].

As to `CN(C)c1nc(-c2ccccc2)c2cnn(Cc3ccccc3)c2n1`, the concentration at half-maximal activity (AC50) was 12.6 µM [rising, partial curve].

With `CN(C(=O)COC(=O)C1CCN(S(=O)(=O)c2cccs2)CC1)C1CCS(=O)(=O)C1` (centres undefined), the half-maximal activity concentration (AC50) is 0.316 µM [falling, full curve].

For `N#Cc1c(SCC(=O)Nc2nccs2)nc2c(c1-c1ccco1)CCCC2`, the half-maximal activity concentration (AC50) is 5.01 µM [rising, partial curve].

Consider `CCS(=O)(=O)N1CCC(C(=O)N2CCN(c3ccccc3)CC2)CC1`, for which the AC50 is 25.1 µM [falling, single point].

For `O=C(OCn1nnc2ccccc2c1=O)c1cn(-c2ccccc2)nc1-c1cccnc1`, the AC50 was 6.31 µM [rising, partial curve].

For `Cc1cc(Cl)nc2ccc(Cc3ccc4nc(Cl)cc(C)c4c3)cc12`, the AC50 was 2.51 µM [rising, partial curve].

On to `COc1ccc(N2CCN(c3oc(-c4ccco4)nc3C#N)CC2)cc1`, for which the AC50 was 10 µM [rising, partial curve].

Regarding `CCC(C)[C@H](NC(=O)NCc1cccc(OC)c1)C(=O)O` (some centres undefined), the half-maximal activity concentration (AC50) is 1.58 µM [falling, full curve, poor fit].

In the case of `Nc1nc(Cl)nc2c1ncn2[C@@H]1O[C@@H](CO)[C@@H](O)[C@H]1O`, the AC50 was 20 µM [rising, partial curve, poor fit].

`CCNC(=O)N1CCNC(=O)C1CC(=O)OC` (centres undefined): the AC50 is 0.00398 µM [falling, full curve].

On to `COc1cccc(C2=NOC(C(=O)NCc3ccccc3)C2)c1` (centres undefined), for which the AC50 was 25.1 µM [rising, single point].

In the case of `CCC(C)Sc1nc2c(c(=O)[nH]c(=O)n2C)n1CCc1ccccc1` (centres undefined), the AC50 is 3.98 µM [rising, partial curve].

For `Cc1c(CN2CCC(C)CC2)c(=O)n(-c2ccccc2)n1C`, the AC50 was 0.794 µM [falling, full curve].

Regarding `Cc1ccccc1-c1nnc(SCC(=O)Nc2ccc3c(c2)OCCO3)n1N`, the concentration at half-maximal activity (AC50) was 2.51 µM [falling, full curve].

As for `Cc1onc(-c2ccccc2Cl)c1C(=O)Nc1sc2c(c1C#N)CCC2`, the AC50 was 10 µM [rising, single point].

For the compound `CCC(=O)Oc1ccc2c(C)cc(=O)oc2c1C`, the AC50 was 25.1 µM [rising, single point].

`CCOc1ccc(C2Oc3nc(SC)nnc3-c3ccccc3N2C(C)=O)cc1OC` (centres undefined): the concentration at half-maximal activity (AC50) was 0.794 µM [rising, full curve, poor fit].

Take `COc1ccc(Nc2ncnc3c2oc2ccccc23)cc1`: the AC50 is 12.6 µM [rising, partial curve].

In the case of `O=c1ccc2c(o1)/C(=C/C=C(Cl)Cl)CCC2`, the concentration at half-maximal activity (AC50) is 1.58 µM [rising, partial curve].

For the compound `FC(F)(F)c1cc(NC(=S)N2c3ccccc3-n3cccc3[C@H]2c2cccnc2)cc(C(F)(F)F)c1`, the AC50 was 2 µM [rising, partial curve].

As for `Cn1c(=O)c2cc(S(=O)(=O)NCCC(=O)NCCC3=CCCCC3)ccc2n(C)c1=O`, the AC50 is 10 µM [rising, partial curve].

With `O=c1c2ccccc2nc2ccc(NCc3ccco3)nn12`, the AC50 was 10 µM [falling, partial curve].

As for `Cn1c(-c2ccc(CN3CCCCC3)o2)nc2ccccc21`, the concentration at half-maximal activity (AC50) is 12.6 µM [rising, partial curve].

As to `Cc1nnc2sc(-c3cccc4ccccc34)nn12`, the concentration at half-maximal activity (AC50) is 25.1 µM [rising, single point].

As to `CCOC(=O)c1cccc(NC(=O)N[C@@H](C)C(=O)OC)c1`, the AC50 was 0.0126 µM [falling, full curve, poor fit].

Turning to `Cc1cc(=O)oc2c1ccc1oc(/C(=N/O)c3ccccc3)c(C)c12`, the concentration at half-maximal activity (AC50) was 20 µM [falling, single point].

With `Cc1ccc(S(=O)(=O)N(CC(=O)N2CCCC2)C2CCCCC2)cc1`, the AC50 was 0.00398 µM [falling, full curve, poor fit].

Regarding `CC(C)C(NC(=O)OCc1ccccc1)C(=O)OCC(=O)NCc1ccco1` (centres undefined), the AC50 was 7.94 µM [falling, partial curve, poor fit].

`COc1ccc(C(=O)n2nc(-c3ccccc3)nc2N)cc1OC`: the AC50 was 6.31 µM [rising, partial curve].

`CCC(C)[C@H](NC(=O)NCc1cccs1)C(=O)OC` (some centres undefined): the AC50 is 10 µM [falling, partial curve].

With `O=C(O)C1CCCCC1C(=O)Nc1ccccc1Nc1ccccc1` (centres undefined), the AC50 was 10 µM [falling, partial curve].

On to `c1csc(CNc2ccnc(-c3ccc4c(c3)OCO4)n2)c1`, for which the AC50 was 10 µM [rising, single point].

On to `C=CCn1c(=O)c2c(C)c(C)sc2n2c(Nc3ccccc3)nnc12`, for which the concentration at half-maximal activity (AC50) was 3.16 µM [rising, full curve].

Turning to `CCOc1ccc2nc3ccc4[nH]onc4c3c2c1`, the AC50 is 12.6 µM [rising, partial curve].

For the compound `COc1ccc(-c2cn3c4c(sc3n2)CCCC4)cc1`, the concentration at half-maximal activity (AC50) is 25.1 µM [rising, single point].

In the case of `C=CCn1c(=N)c(C(=O)NCCCOC)cc2c(=O)n3cccc(C)c3nc21`, the concentration at half-maximal activity (AC50) was 12.6 µM [rising, partial curve].

Consider `Nc1nc2ccc(OC(F)(F)F)cc2s1`, for which the AC50 was 12.6 µM [rising, partial curve].

As for `COc1cccc(C(=O)/C=C/Nc2cc(C)ccc2O)c1`, the AC50 is 3.98 µM [rising, single point].

With `COc1cc2c(cc1OC)C(c1cccs1)CC(=O)N2` (centres undefined), the concentration at half-maximal activity (AC50) is 12.6 µM [rising, single point].

As to `CCn1cc(C(=O)Nc2ccccc2C(=O)OC)c(=O)c2ccc(C)nc21`, the concentration at half-maximal activity (AC50) was 2 µM [rising, partial curve].

As to `COc1ccc(N2C(=O)CC(N3CCCC4CCCCC43)C2=O)cc1` (centres undefined), the AC50 is 0.0126 µM [falling, full curve].

Turning to `N=c1c(S(=O)(=O)c2ccccc2)cc2c(=O)n3ccccc3nc2n1Cc1ccco1`, the half-maximal activity concentration (AC50) is 10 µM [rising, partial curve].

In the case of `O=C(CSc1nc2cc(Cl)ccc2s1)NC(=O)NCc1ccco1`, the concentration at half-maximal activity (AC50) is 0.126 µM [falling, full curve].

Take `CCOC(=O)Cn1c(=O)c2c(nc(N3CCCCC3)n2C)n(C)c1=O`: the AC50 is 12.6 µM [rising, single point].

`COc1ccc2nc(SCC(N)=O)cc(C)c2c1`: the half-maximal activity concentration (AC50) is 25.1 µM [rising, single point].

In the case of `COc1cc2cc(C)c3nnc(SCC(N)=O)n3c2cc1OC`, the AC50 was 10 µM [rising, partial curve].

`COc1cc(O)c2c(O)c3c(c4c2c1[C@@]1(C4)C(C)=CCCC1(C)C)[C@H](O)[C@@]1(O)CC(=O)C(C(N)=O)=C(O)[C@]1(O)C3=O`: the AC50 is 1.58 µM [rising, partial curve].

For `N#CC1=C(N)SC(N)=C(C#N)C1Cc1ccccc1`, the half-maximal activity concentration (AC50) was 12.6 µM [falling, partial curve].

As for `O=C(Cn1c(=O)n(-c2ccc(F)cc2)c(=O)c2sccc21)N1CCCC1`, the half-maximal activity concentration (AC50) was 0.0251 µM [falling, full curve, poor fit].

On to `COc1ccc(OC)c2c(C)cc(NCCN3CCOCC3)nc12`, for which the concentration at half-maximal activity (AC50) is 12.6 µM [rising, single point].

As a reminder, the AC50 is the concentration at which the activity in the assay is half-maximal.
